{
  "source": "PubChem BioAssay AID256",
  "about": "(DTP/NCI, 2004)",
  "system": "CD2F1 mice, L1210 leukemia ip, survival T/C",
  "assay": "NCI In Vivo Anticancer Drug Screen. Data for tumor model L1210 Leukemia (intraperitoneal) in CD2F1 (CDF1) mice",
  "details": "higher T/C = longer survival",
  "outline": "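Activity against a transplanted murine tumor was judged by comparing the compound group with a vehicle group. The outcome in the treated animals was divided by that in the controls.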",
  "key": {"[1]": {"details": "T/C endpoint: mean survival time, dose: 200.0 mg/kg/injection, schedule: Q04DX003 (ip), vehicle: saline with Tween-80"}, "[2]": {"details": "T/C endpoint: mean survival time, dose: 400.0 mg/kg/injection, schedule: Q04DX003 (ip), vehicle: saline with Tween-80"}, "[3]": {"details": "T/C endpoint: mean survival time, dose: 100.0 mg/kg/injection, schedule: Q04DX002 (ip), vehicle: saline with Tween-80"}, "[4]": {"details": "T/C endpoint: mean survival time, dose: 200.0 mg/kg/injection, schedule: Q04DX002 (ip), vehicle: saline with Tween-80"}, "[5]": {"details": "T/C endpoint: mean survival time, dose: 400.0 mg/kg/injection, schedule: Q04DX002 (ip), vehicle: saline with Tween-80"}, "[6]": {"details": "T/C endpoint: mean survival time, dose: 300.0 mg/kg/injection, schedule: Q01DX001 (ip), vehicle: saline"}},
  "note": "The list does not hold the whole screen: it gathers tests that were run many times, whatever their T/C, doses with no T/C, and many T/C values between a quarter and a half above the control. Further doses and runs are listed elsewhere. T/C: endpoint of the treated group in % of that of the vehicle group. Some doses have a count of surviving animals in place of a T/C: the source holds a T/C of zero for them, seemingly a mark for toxic or unscored doses. Some doses without a T/C left all or most animals alive at the check, yet need not have been tolerated: the source hardly ever lists a survival T/C far under the control, and the zero likely stands for such cases as well. Survivors were counted at the toxicity check, usually on the fifth day, unless a day is given; later deaths do not show. Schedule codes are those of the source, read here as Q, the interval in days (D) or hours (H), X, the number of doses. Some entries were tested several times; the results are listed from low to high. Some schedule codes hold Z or #, which are not explained here. Where survival is the endpoint, the PubChem record calls one and a half times the control and up active, and a quarter to a half above the control has no call in these data; cut-offs in other NCI protocols can differ.",
  "data": [
    {"smiles": "O=[N+]([O-])c1ccc(/C=N/O)s1", "values": [
      {"measurement": "survivor count", "setting": "T/C endpoint: mean survival time, dose: 50.0 mg/kg/injection, schedule: Q01DX009 (ip), vehicle: saline with Tween-80", "result": "2 of 6"}
    ]},
    {"smiles": "O=P(O)(O)C1c2ccccc2-c2ccccc21", "values": [
      {"measurement": "survivor count", "setting": "T/C endpoint: mean survival time, dose: 400.0 mg/kg/injection, schedule: Q01DX009 (ip), vehicle: saline with Tween-80", "result": "3 of 6"}
    ]},
    {"smiles": "CC(=O)Nc1sc([N+](=O)[O-])cc1[N+](=O)[O-]", "values": [
      {"measurement": "survivor count", "setting": "[1]", "result": "1 of 3"},
      {"measurement": "survivor count", "setting": "[2]", "result": "1 of 3"}
    ]},
    {"smiles": "CC(C)C(NC(=O)C(CCCN=C(N)N)NC(=O)C(N)CCCCN)C(N)=O", "note": "(centres undefined)", "values": [
      {"measurement": "survivor count", "setting": "T/C endpoint: mean survival time, dose: 400.0 mg/kg/injection, schedule: Q01DX009 (ip), vehicle: water", "result": "0 of 6"}
    ]},
    {"smiles": "Cc1ccccc1[As](c1ccccc1C)c1ccccc1C", "values": [
      {"measurement": "survivor count", "setting": "T/C endpoint: mean survival time, dose: 50.0 mg/kg/injection, schedule: Q01DX009 (ip), vehicle: saline", "result": "6 of 6"}
    ]},
    {"smiles": "NC(CSS(=O)(=O)O)=NCCCCN=C(N)CSS(=O)(=O)O", "values": [
      {"measurement": "survivor count", "setting": "[3]", "result": "0 of 3"},
      {"measurement": "survivor count", "setting": "[4]", "result": "0 of 3"},
      {"measurement": "survivor count", "setting": "[5]", "result": "0 of 3"}
    ]},
    {"smiles": "CCN1/C(=C/C=C/C=C/c2sc3ccccc3[n+]2CC)Sc2ccccc21", "values": [
      {"measurement": "T/C", "setting": "T/C endpoint: mean survival time, dose: 0.19 mg/kg/injection, schedule: Q01DX009 (ip), vehicle: saline", "result": "126 % of control"},
      {"measurement": "survivor count", "setting": "T/C endpoint: mean survival time, dose: 0.39 mg/kg/injection, schedule: Q01DX009 (ip), vehicle: saline", "result": "1 of 3"}
    ]},
    {"smiles": "CCOc1cc2c(cc1C(C)c1ccc(OC)cc1)OCO2", "note": "(centres undefined)", "values": [
      {"measurement": "survivor count", "setting": "T/C endpoint: median survival time, dose: 200.0 mg/kg/injection, schedule: Q01DX009 (ip), vehicle: distilled water + alcohol", "result": "5 of 6"},
      {"measurement": "survivor count", "setting": "T/C endpoint: median survival time, dose: 400.0 mg/kg/injection, schedule: Q01DX009 (ip), vehicle: distilled water + alcohol", "result": "5 of 6"}
    ]},
    {"smiles": "Nc1nc(=S)c2n[nH]nc2[nH]1", "values": [
      {"measurement": "survivor count", "setting": "T/C endpoint: mean survival time, dose: 100.0 mg/kg/injection, schedule: Q01DX001 (ip), vehicle: saline with Tween-80", "result": "2 of 6"}
    ]},
    {"smiles": "C1=C(CN2CCCCC2)COc2ccccc21", "values": [
      {"measurement": "survivor count", "setting": "[6]", "result": "0 of 6"}
    ]},
    {"smiles": "CCCC(=O)Nc1ccn(C2OC(CO)C(O)C2O)c(=O)n1", "note": "(centres undefined)", "values": [
      {"measurement": "T/C", "setting": "[3]", "result": "130 % of control"},
      {"measurement": "T/C", "setting": "[4]", "result": "130 % of control"},
      {"measurement": "T/C", "setting": "[5]", "result": "139 % of control"}
    ]},
    {"smiles": "N#CCCCCCCN=[N+]=[N-]", "values": [
      {"measurement": "survivor count", "setting": "[6]", "result": "1 of 6"}
    ]},
    {"smiles": "CN(Cc1ccccc1)N=Nc1ccc(C(=O)O)cc1", "values": [
      {"measurement": "survivor count", "setting": "T/C endpoint: mean survival time, dose: 200.0 mg/kg/injection, schedule: Q01DX009 (ip), vehicle: other", "result": "1 of 3"},
      {"measurement": "survivor count", "setting": "T/C endpoint: mean survival time, dose: 400.0 mg/kg/injection, schedule: Q01DX009 (ip), vehicle: other", "result": "0 of 3"}
    ]},
    {"smiles": "O=C1c2cccc(NCCCNCCO)c2C(=O)c2cccc(NCCCNCCO)c21", "values": [
      {"measurement": "survivor count", "setting": "T/C endpoint: median survival time, dose: 100.0 mg/kg/injection, schedule: Q01DX009 (ip), vehicle: acid diluted with saline", "result": "0 of 6"}
    ]},
    {"smiles": "CCSC1=[N+](SCC)CCCS1", "values": [
      {"measurement": "survivor count", "setting": "T/C endpoint: mean survival time, dose: 150.0 mg/kg/injection, schedule: Q01DX001 (ip), vehicle: saline", "result": "0 of 6"},
      {"measurement": "survivor count", "setting": "[6]", "result": "0 of 6"}
    ]},
    {"smiles": "CC1CN=C(c2ccc(NC(=O)Nc3ccc(NC(=O)c4ccc(C5=NCC(C)N5)cc4)cc3)cc2)N1", "note": "(centres undefined)", "values": [
      {"measurement": "survivor count", "setting": "T/C endpoint: mean survival time, dose: 40.0 mg/kg/injection, schedule: Q01DX Z (ip), vehicle: water", "result": "0 of 6"},
      {"measurement": "survivor count", "setting": "T/C endpoint: mean survival time, dose: 60.0 mg/kg/injection, schedule: Q01DX Z (ip), vehicle: water", "result": "0 of 6"},
      {"measurement": "survivor count", "setting": "T/C endpoint: mean survival time, dose: 90.0 mg/kg/injection, schedule: Q01DX Z (ip), vehicle: water", "result": "0 of 6"}
    ]},
    {"smiles": "NC(N)=NC(N)=Nc1cnccn1", "values": [
      {"measurement": "survivor count", "setting": "[6]", "result": "0 of 6"}
    ]},
    {"smiles": "CN(C=O)NC(=O)N(CCCl)N=O", "values": [
      {"measurement": "survivor count", "setting": "T/C endpoint: median survival time, dose: 50.0 mg/kg/injection, schedule: Q01DX001 (ip), vehicle: saline", "result": "6 of 6"},
      {"measurement": "survivor count", "setting": "T/C endpoint: median survival time, dose: 100.0 mg/kg/injection, schedule: Q01DX001 (ip), vehicle: saline", "result": "1 of 6 and 3 of 6"}
    ]},
    {"smiles": "N#CCCCN1CCCCCC1", "values": [
      {"measurement": "survivor count", "setting": "[1]", "result": "0 of 6"},
      {"measurement": "survivor count", "setting": "[2]", "result": "0 of 6"}
    ]},
    {"smiles": "CCCCCCCCCCNCCS", "values": [
      {"measurement": "survivor count", "setting": "T/C endpoint: mean survival time, dose: 10.0 mg/kg/injection, schedule: Q01DX009 (ip), vehicle: saline with Tween-80", "result": "3 of 6"},
      {"measurement": "survivor count", "setting": "T/C endpoint: mean survival time, dose: 100.0 mg/kg/injection, schedule: Q04DX003 (ip), vehicle: saline with Tween-80", "result": "0 of 6"},
      {"measurement": "survivor count", "setting": "[1]", "result": "1 of 6"},
      {"measurement": "survivor count", "setting": "[2]", "result": "0 of 6"}
    ]},
    {"smiles": "CCCCCCOC(=O)C[n+]1ccc(C(N)=O)cc1", "values": [
      {"measurement": "survivor count", "setting": "T/C endpoint: mean survival time, dose: 400.0 mg/kg/injection, schedule: Q04DX003 (ip), vehicle: saline", "result": "5 of 6"}
    ]},
    {"smiles": "CSc1ccc(OC(=O)Nc2ccccc2F)cc1", "values": [
      {"measurement": "survivor count", "setting": "[2]", "result": "6 of 6"}
    ]},
    {"smiles": "CC1CCCCN1", "note": "(centres undefined)", "values": [
      {"measurement": "survivor count", "setting": "T/C endpoint: mean survival time, dose: 200.0 mg/kg/injection, schedule: Q01DX001 (ip), vehicle: saline with Tween-80", "result": "1 of 1"}
    ]}
  ]
}
